According to publication PMC7617243:
Like-named read-outs stand apart in the source and are kept apart here. Results are given in words; binding and its absence hold for the method and conditions named. For some of these results: Binding seen in cells or lysates may run through a third protein. Some results given as binding are weak or reduced against the parent protein; the word gives no strength. For some of these results: Sequences can lack the tags named with a protein.

The chains behind the UniProt entries cited, without tags or fusion partners.
UniProt Q6PD10: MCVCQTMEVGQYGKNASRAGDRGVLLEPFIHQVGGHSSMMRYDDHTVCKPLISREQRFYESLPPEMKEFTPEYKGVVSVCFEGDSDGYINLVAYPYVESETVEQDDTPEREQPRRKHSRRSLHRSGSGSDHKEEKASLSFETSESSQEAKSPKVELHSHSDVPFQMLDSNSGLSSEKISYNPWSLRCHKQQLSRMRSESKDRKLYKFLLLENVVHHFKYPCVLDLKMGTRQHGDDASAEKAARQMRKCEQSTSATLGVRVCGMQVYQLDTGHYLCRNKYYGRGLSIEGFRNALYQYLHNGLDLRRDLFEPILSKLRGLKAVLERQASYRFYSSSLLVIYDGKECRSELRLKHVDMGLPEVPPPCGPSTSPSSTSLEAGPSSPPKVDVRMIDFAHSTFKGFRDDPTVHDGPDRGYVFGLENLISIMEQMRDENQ
UniProt P41233: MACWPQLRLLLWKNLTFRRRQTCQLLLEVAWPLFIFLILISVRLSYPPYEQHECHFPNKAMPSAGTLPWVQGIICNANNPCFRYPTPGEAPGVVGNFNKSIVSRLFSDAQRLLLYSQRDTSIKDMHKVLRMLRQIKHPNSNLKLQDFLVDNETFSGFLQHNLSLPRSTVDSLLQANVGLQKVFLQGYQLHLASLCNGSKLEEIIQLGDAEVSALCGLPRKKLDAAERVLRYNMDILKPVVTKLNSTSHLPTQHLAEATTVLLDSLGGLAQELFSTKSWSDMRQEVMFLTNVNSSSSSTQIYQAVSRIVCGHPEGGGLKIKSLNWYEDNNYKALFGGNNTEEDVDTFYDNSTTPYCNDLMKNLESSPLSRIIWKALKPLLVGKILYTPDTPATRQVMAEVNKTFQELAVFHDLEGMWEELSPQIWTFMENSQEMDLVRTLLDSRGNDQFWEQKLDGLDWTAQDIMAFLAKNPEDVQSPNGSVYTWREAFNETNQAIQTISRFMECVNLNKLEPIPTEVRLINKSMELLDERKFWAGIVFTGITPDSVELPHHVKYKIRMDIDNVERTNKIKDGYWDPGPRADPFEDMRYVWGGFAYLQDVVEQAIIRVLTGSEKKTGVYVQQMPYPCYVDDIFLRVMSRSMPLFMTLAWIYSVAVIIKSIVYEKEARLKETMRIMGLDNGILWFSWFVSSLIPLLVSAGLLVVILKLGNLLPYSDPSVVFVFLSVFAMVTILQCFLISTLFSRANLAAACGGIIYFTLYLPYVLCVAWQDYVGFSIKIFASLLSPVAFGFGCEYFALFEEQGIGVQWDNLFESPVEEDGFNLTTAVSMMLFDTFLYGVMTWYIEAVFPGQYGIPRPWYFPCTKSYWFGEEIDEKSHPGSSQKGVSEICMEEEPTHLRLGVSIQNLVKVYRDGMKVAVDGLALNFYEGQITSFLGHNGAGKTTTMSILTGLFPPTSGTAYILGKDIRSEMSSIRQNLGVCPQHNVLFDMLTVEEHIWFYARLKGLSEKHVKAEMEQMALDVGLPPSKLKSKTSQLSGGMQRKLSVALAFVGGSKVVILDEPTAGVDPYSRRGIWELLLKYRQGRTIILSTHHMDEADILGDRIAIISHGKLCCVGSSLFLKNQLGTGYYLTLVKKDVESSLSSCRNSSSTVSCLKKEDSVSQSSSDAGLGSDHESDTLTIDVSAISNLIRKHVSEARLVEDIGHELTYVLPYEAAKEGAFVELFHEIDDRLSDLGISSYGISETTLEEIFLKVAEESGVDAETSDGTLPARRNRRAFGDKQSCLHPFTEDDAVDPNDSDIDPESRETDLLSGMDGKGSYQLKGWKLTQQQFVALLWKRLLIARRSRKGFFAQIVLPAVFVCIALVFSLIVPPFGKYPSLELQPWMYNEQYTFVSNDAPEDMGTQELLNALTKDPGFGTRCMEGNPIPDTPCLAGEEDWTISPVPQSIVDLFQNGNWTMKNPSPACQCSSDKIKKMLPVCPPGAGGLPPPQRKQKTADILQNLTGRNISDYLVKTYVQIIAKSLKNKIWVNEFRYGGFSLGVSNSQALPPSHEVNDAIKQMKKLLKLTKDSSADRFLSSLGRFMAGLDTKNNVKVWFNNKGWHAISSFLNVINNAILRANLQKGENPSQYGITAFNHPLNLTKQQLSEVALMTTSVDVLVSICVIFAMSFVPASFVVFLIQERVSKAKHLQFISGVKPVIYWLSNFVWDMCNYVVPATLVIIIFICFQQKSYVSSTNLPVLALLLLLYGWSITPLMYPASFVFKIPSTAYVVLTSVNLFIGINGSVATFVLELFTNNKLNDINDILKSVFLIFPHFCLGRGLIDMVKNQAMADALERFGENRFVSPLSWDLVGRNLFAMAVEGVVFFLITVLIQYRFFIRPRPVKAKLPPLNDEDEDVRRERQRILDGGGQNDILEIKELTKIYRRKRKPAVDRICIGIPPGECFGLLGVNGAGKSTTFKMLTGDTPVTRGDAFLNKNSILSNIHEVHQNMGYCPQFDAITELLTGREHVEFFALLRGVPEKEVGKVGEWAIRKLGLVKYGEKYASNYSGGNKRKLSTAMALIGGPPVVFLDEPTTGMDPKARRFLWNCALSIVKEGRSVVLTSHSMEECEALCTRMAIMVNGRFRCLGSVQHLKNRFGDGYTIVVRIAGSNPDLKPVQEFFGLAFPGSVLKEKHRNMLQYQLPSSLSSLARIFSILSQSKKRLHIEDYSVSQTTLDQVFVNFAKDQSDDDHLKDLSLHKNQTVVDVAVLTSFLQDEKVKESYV

Assays:
[1] = molecular target: T1, Apolipoprotein A-I (apoA-I), endogenous (mouse (endogenous in primary murine hepatocytes)) (UniProt Q00623); test: co-IP; endogenous proteins in primary murine hepatocytes (for ABCA1: WT and IP6K1 KO hepatocytes); lysis buffer 50 mM Tris-HCl pH 7.4, 100 mM NaCl, 0.5% Igepal CA630, 5 mM MgCl2; primary antibody overnight at 4°C, protein A/G beads
T1 sequence: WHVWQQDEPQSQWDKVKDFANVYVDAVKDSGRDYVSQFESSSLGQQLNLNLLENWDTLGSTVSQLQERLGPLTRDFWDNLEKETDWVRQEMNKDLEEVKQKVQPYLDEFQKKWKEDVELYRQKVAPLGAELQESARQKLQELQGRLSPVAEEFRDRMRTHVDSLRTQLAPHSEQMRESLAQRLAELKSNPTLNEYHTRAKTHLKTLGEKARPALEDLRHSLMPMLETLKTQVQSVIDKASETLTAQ

[2] = molecular target: T2, Ubiquitination factor E4A (UBE4A), endogenous (mouse (endogenous in primary murine hepatocytes)) (UniProt E9Q735); test: as above
T2 sequence: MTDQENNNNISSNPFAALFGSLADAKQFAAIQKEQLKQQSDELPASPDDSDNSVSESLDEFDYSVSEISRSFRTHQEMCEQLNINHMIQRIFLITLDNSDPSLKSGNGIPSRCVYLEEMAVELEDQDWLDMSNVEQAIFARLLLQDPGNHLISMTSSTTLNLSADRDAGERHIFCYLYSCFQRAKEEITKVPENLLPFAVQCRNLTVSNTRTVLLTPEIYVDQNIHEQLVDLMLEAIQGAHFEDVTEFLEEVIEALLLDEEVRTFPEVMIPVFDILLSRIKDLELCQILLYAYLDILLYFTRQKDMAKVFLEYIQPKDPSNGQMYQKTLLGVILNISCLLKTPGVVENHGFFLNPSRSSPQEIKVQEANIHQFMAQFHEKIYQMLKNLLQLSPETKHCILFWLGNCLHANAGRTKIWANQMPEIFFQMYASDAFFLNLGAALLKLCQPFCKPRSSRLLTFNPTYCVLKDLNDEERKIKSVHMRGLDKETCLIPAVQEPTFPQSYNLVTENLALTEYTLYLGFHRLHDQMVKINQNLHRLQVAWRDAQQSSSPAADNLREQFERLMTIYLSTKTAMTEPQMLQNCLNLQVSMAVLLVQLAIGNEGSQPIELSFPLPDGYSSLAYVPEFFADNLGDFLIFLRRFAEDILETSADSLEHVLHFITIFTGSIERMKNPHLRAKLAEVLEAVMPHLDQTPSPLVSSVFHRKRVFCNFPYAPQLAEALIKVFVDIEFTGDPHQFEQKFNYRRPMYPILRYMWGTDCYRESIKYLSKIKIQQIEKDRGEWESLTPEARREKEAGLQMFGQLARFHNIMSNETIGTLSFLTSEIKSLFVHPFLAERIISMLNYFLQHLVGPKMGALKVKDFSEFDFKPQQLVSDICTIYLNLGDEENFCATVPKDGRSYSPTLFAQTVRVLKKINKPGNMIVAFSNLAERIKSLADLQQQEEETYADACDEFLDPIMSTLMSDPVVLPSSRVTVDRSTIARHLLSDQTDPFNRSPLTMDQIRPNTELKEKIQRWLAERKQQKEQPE

[3] = molecular target: T3, Flag-tagged apoA-I (made in HEK 293 cells) (UniProt Q00623); test: co-IP; tagged proteins overexpressed together (HEK 293 cells named for Fig. 3C, G, H; cells not named for Fig. 3E, F); lysis buffer 50 mM Tris-HCl pH 7.4, 100 mM NaCl, 0.5% Igepal CA630, 5 mM MgCl2; primary antibody overnight at 4°C, protein A/G beads
T3 sequence: T1 sequence

[4] = molecular target: T4, Flag-tagged apoA-I (overexpressed in primary murine hepatocytes) (UniProt Q00623); test: co-IP; flag-apoA-I overexpressed in primary murine hepatocytes, endogenous UBE4A; WT against IP6K1 KO cells, and cells treated with SC-919 (1 μM, 24 hours) against untreated; less complex in IP6K1 KO and in SC-919-treated cells
T4 sequence: T1 sequence

[5] = molecular target: Inositol hexakisphosphate kinase 1 (IP6K1), endogenous (mouse (endogenous in primary murine hepatocytes)) (UniProt Q6PD10); test: co-IP; endogenous proteins in primary murine hepatocytes (for ABCA1: WT and IP6K1 KO hepatocytes); lysis buffer 50 mM Tris-HCl pH 7.4, 100 mM NaCl, 0.5% Igepal CA630, 5 mM MgCl2; primary antibody overnight at 4°C, protein A/G beads
[6] = molecular target: T1, Apolipoprotein A-I (apoA-I), endogenous (mouse (endogenous in primary murine hepatocytes)); test: as above; remark: listed apart in the source
[7] = molecular target: T2, Ubiquitination factor E4A (UBE4A), endogenous (mouse (endogenous in primary murine hepatocytes)); test: co-IP; flag-apoA-I overexpressed in primary murine hepatocytes, endogenous UBE4A; WT against IP6K1 KO cells, and cells treated with SC-919 (1 μM, 24 hours) against untreated; less complex in IP6K1 KO and in SC-919-treated cells
[8] = molecular target: T3, Flag-tagged apoA-I (made in HEK 293 cells); test: pull-down; in vitro binding assay: flag-apoA-I held on protein A/G agarose by anti-flag-tag antibody; purified UBE4A added in the presence of InsP6, 5PP-InsP5, 5PCP, CF2, 1PP-InsP5, 3PP-InsP5, InsP3, InsP4 or InsP5, overnight at 4°C; beads washed three times; both purified
[9] = molecular target: Myc-tagged WT IP6K1 (UniProt Q6PD10); test: co-IP; tagged proteins overexpressed together (HEK 293 cells named for Fig. 3C, G, H; cells not named for Fig. 3E, F); lysis buffer 50 mM Tris-HCl pH 7.4, 100 mM NaCl, 0.5% Igepal CA630, 5 mM MgCl2; primary antibody overnight at 4°C, protein A/G beads
[10] = molecular target: T3, Flag-tagged apoA-I (made in HEK 293 cells); test: as above; remark: listed apart in the source
[11] = molecular target: T5, HA-tagged UBE4A (UniProt E9Q735); test: as above
T5 sequence: T2 sequence

ATP binding cassette subfamily A member 1 (ABCA1), endogenous (from UniProt P41233 1-2261)
binding [1]: binds

Inositol hexakisphosphate kinase 1 (IP6K1), endogenous (from UniProt Q6PD10 1-433) (enzyme)
binding [1]: binds
binding [2]: binds

Myc-tagged WT IP6K1 (from UniProt Q6PD10 1-433) (enzyme)
binding [3]: binds

B1: Ubiquitination factor E4A (UBE4A), endogenous (enzyme, UniProt E9Q735 1-1028)
chain: T2 sequence
binding [4]: binds
binding [5]: binds
binding [6]: binds

B2: Flag-tagged apoA-I (overexpressed in primary murine hepatocytes) (protein, UniProt Q00623 19-264)
chain: T1 sequence
binding [7]: binds

B3: GST-fused UBE4A (enzyme, UniProt E9Q735 1-1028)
chain: T2 sequence
binding [8]: binds

B4: HA-tagged UBE4A (enzyme, UniProt E9Q735 1-1028)
chain: T2 sequence
binding [9]: binds
binding [10]: binds

B5: Flag-tagged apoA-I (made in HEK 293 cells) (protein, UniProt Q00623 19-264)
chain: T1 sequence
binding [11]: binds
binding [9]: binds
